Laboratory results: PMC2660430
Results are given in words; binding and its absence hold for the method and conditions named.

Sequences of proteins named here, by UniProt entry; tags and fusion partners are left off.
UniProt P50250: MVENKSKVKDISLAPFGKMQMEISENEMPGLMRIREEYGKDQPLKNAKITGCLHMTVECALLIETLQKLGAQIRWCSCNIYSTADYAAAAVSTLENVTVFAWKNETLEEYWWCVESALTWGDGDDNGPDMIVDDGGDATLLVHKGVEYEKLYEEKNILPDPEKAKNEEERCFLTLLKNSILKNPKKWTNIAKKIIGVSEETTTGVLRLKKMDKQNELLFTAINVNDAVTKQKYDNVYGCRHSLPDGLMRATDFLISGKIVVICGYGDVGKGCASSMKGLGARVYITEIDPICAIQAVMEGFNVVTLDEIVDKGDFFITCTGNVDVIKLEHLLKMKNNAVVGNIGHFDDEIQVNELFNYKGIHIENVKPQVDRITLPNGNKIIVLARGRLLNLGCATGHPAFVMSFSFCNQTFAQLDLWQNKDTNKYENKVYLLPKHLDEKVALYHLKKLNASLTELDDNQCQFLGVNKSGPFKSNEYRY

Biological target: PfSAHH (recombinant S-adenosyl-L-homocysteine hydrolase) (P. falciparum strain 3D7) (UniProt P50250)
Experiment: SPR; BIAcore X; SAHH amine-coupled to CM5 chip, oxidized with 0.5 mM DTNB; analyte 10 µM in HBS buffer (10 mM HEPES, 150 mM NaCl, 3.4 mM EDTA, 0.005% Nonidet P-40, pH 7.4), 25°C, 10 µl/min; elution with 2 mM DTT; FC2-FC1; both purified

B1: PfTrx1 (wild type thioredoxin) (protein, UniProt Q7KQL8 1-104)
chain: MVKIVTSQAEFDSIISQNELVIVDFFAEWCGPCKRIAPFYEECSKTYTKMVFIKVDVDEVSEVTEKENITSMPTFKVYKNGSSVDTLLGANDSALKQLIEKYAA
- binding: no binding (tested: 10 µM)
